Results are given in words; binding and its absence hold for the method and conditions named. Some entries that bind do so weakly or less than the wild type.
What was measured:
[1] = molecular target: T1, human HER3/ErbB3 extracellular domain (human, UniProt P21860 20-643); experiment: ELISA on human HER3 ECD
T1 construct: extracellular domain; the range 1-643 of M34309 is printed only for the immunogen; also called Human HER3 ECD; recombinant human HER3

By UniProt entry, the sequences of proteins in these tests, tags left out. Residues count along the entry.
UniProt P21860, residues 20-643: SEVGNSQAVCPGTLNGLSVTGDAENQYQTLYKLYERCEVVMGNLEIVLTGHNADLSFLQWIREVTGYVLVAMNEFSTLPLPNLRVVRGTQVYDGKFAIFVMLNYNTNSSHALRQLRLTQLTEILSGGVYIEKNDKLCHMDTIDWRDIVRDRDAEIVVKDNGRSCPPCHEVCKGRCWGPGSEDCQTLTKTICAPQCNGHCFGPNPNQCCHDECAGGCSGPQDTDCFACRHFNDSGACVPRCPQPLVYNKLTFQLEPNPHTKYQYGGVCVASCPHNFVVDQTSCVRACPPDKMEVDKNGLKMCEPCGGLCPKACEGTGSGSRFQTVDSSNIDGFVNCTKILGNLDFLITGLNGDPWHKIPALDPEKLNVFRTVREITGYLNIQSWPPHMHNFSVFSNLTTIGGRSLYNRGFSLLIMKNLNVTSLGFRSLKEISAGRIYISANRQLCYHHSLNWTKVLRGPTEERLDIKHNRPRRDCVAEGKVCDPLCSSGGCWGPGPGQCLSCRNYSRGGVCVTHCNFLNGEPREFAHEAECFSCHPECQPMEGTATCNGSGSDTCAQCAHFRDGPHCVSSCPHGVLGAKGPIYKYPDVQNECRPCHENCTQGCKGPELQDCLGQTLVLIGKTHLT
UniProt Q61526, residues 20-641: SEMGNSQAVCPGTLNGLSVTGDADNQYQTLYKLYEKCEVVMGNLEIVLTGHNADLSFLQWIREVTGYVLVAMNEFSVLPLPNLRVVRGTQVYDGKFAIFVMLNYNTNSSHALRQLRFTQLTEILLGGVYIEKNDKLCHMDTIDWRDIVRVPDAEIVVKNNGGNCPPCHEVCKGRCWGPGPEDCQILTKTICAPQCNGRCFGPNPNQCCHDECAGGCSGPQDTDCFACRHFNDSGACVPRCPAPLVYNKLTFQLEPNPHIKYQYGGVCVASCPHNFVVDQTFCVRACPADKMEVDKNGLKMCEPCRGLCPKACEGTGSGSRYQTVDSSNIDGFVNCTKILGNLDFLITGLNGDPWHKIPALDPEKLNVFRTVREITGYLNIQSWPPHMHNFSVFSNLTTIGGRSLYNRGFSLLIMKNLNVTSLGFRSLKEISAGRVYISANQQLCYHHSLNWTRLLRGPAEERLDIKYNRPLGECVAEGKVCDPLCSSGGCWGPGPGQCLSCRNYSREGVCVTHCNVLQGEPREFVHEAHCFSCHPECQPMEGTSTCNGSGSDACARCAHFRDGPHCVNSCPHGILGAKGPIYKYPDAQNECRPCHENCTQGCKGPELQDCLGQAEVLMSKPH

Mouse HER3 ECD = molecular target: T2, Mouse HER3 ECD (mouse, UniProt Q61526 20-641); experiment: ELISA on mouse HER3 ECD
T2 construct: extracellular domain; also called mouse HER3 ECD domains

| Binder | binding [1] | binding (Mouse HER3 ECD) |
| --- | --- | --- |
| HER3-hMab-A9 (antibody, V domains shown) VH: QVQLVESGGGLVQPGGSLRLSCSASGFSFSASYYIYWVRQAPGKGLEYIAYITGDDDKRTYYANWAKGRFTISRDNSKNTVYLQMNSLRAEDTAVYYCTRNLPDELWGPGTLVTVSS VL: DIQMTQTPSTLSASVGDRVTITCQSSESVYSYKNLAWYQQKPGKPPKLLIWQASRLSSGVPSRFSGSGSGTEFTLTISSLQPDDFATYYCQGTYYSSAWDFVFGGGTKVEIK | binds | binds |
| HER3-hMab-A10 (antibody, V domains shown) VH: QVQLVESGGGLVQPGGSLRLSCSASGFSFSASYYIYWVRQAPGKGLEYIAYITGDDDKRTYYANWAKGRFTISRDTSKNTVYLQMNSLRAEDTAVYYCTRNLPDELWGPGTLVTVSS VL: DIQMTQTPSTLSASVGDRVTITCQSSESVYSYKNLAWYQQKPGKPPKLLIWQASRLSSGVPSRFSGSGSGTEFTLTISSLQPDDFATYYCQGTYYSSAWDFVFGGGTKVEIK | binds | binds |
| HER3-hMab-A11 (antibody, V domains shown) VH: QVQLVESGGGLVQPGGSLRLSCSASGFSFSASYYIYWVRQAPGKGLEYIAYITGDDDKRTYYANWAKGRFTISRDNSKNTVYLQMNSLRAEDTAVYYCTRNLPDELWGPGTLVTVSS VL: QAQMTQTPSTLSASVGDRVTITCQSSESVYSYKNLAWYQQKPGKPPKLLIWQASRLSSGVPSRFSGSGSGTEFTLTISSLQPDDFATYYCQGTYYSSAWDFVFGGGTKVEIK | binds | binds |
| HER3-hMab-A12 (antibody, V domains shown) VH: QVQLVESGGGLVQPGGSLRLSCSASGFSFSASYYIYWVRQAPGKGLEYIAYITGDDDKRTYYANWAKGRFTISRDTSKNTVYLQMNSLRAEDTAVYYCTRNLPDELWGPGTLVTVSS VL: QAQMTQTPSTLSASVGDRVTITCQSSESVYSYKNLAWYQQKPGKPPKLLIWQASRLSSGVPSRFSGSGSGTEFTLTISSLQPDDFATYYCQGTYYSSAWDFVFGGGTKVEIK | binds | binds |
